For the experiment, the target named is T1, isolated guineapig's ileum (Cavia porcellus).
T1 construct: isolated guineapig's ileum; from tissue; host or cells: isolated guinea pig ileum
As to the kind of experiment: calcium antagonistic activity on isolated guineapig's ileum stimulated with barium chloride. The conditions noted are these: read-out: pA2-value (BaCl2) (converted).

On to `COC(=O)C1=C(C)NC(C)=C(C(=O)OC)C1c1ccccc1[N+](=O)[O-]` [Nifedipine, 1,4-dihydro-2,6-dimethyl-4-(2-nitrophenyl)-3,5-pyridine carboxylic acid dimethyl ester], for which the Kb is 9.55 nM.

The values above are taken from patent US4757080A, “1,4-dihydropyridine derivatives” (Heumann Pharma GmbH & Co., priority 1986, dated 1988).
